Measurements reported in PubChem BioAssay AID1508597 (Cure First, 2020).
This is an unselected part of the about 2,100 reagents, in one setting of the screen. 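Calls flag viability under 80% in either arm, not effects specific to rucaparib; the reference for percent is not stated.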 Unmarked entries are inactive. Not given: the 100% reference.

Purpose: 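Genes whose silencing sensitises or protects ovarian cancer cells against rucaparib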 (primary screen)
Cell system: human ovarian carcinoma lines grown from tumours: OCI-P5x (papillary serous) and OCI-C5x (clear cell)
Reagents: siRNA pool against human genes, 1.25 pmol siRNA per well
Time to read-out: 72 h or 96 h, depending on the cell culture
Treatment: rucaparib 20 µM (about IC30) or vehicle, present until read-out
Rucaparib or vehicle: Vehicle
Cell line: OCI-C5x (clear cell)
Measured: 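ATP luminescence measured at 72 or 96 h according to the culture, then normalised and expressed as percent viability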
Reading the numbers: viability, normalised: higher = more viable cells remaining
Call rule: 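Active when normalised viability falls below 80 percent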
Meaning of the calls: active = viability under 80%; inactive = viability 80% or more

PDZD2, technical replicate 1
- viability, normalised (%): 46.5 (active)

PDZD2, technical replicate 2
- viability, normalised (%): 41.6 (active)

PDZD2, technical replicate 3
- viability, normalised (%): 55.9 (active)

POLR1C, technical replicate 1
- viability, normalised (%): 69.8 (active)

POLR1C, technical replicate 2
- viability, normalised (%): 62.7 (active)

POLR1C, technical replicate 3
- viability, normalised (%): 61.6 (active)

PRC1, technical replicate 1
- viability, normalised (%): 72.7 (active)

PRC1, technical replicate 2
- viability, normalised (%): 59.3 (active)

PRC1, technical replicate 3
- viability, normalised (%): 50.5 (active)

COPRS, technical replicate 1
- viability, normalised (%): 39.9 (active)

COPRS, technical replicate 2
- viability, normalised (%): 74.7 (active)

COPRS, technical replicate 3
- viability, normalised (%): 37.5 (active)

PDGFRB, technical replicate 1
- viability, normalised (%): 56.4 (active)

PDGFRB, technical replicate 2
- viability, normalised (%): 53 (active)

PDGFRB, technical replicate 3
- viability, normalised (%): 61.7 (active)

HNRNPU, technical replicate 1
- viability, normalised (%): 40.9 (active)

HNRNPU, technical replicate 2
- viability, normalised (%): 33.6 (active)

HNRNPU, technical replicate 3
- viability, normalised (%): 41.1 (active)

LIG3, technical replicate 1
- viability, normalised (%): 56.3 (active)

LIG3, technical replicate 2
- viability, normalised (%): 57.9 (active)

LIG3, technical replicate 3
- viability, normalised (%): 31.3 (active)

DEK, technical replicate 1
- viability, normalised (%): 27.7 (active)

DEK, technical replicate 2
- viability, normalised (%): 35.2 (active)

DEK, technical replicate 3
- viability, normalised (%): 20.2 (active)

CSRNP2, technical replicate 1
- viability, normalised (%): 64.6 (active)

CSRNP2, technical replicate 2
- viability, normalised (%): 64.6 (active)

CSRNP2, technical replicate 3
- viability, normalised (%): 49 (active)

PDE2A, technical replicate 1
- viability, normalised (%): 59.2 (active)

PDE2A, technical replicate 2
- viability, normalised (%): 57 (active)

PDE2A, technical replicate 3
- viability, normalised (%): 60.4 (active)

MARK2, technical replicate 1
- viability, normalised (%): 55.2 (active)

MARK2, technical replicate 2
- viability, normalised (%): 47 (active)

MARK2, technical replicate 3
- viability, normalised (%): 31.9 (active)

NPM2, technical replicate 1
- viability, normalised (%): 66.8 (active)

NPM2, technical replicate 2
- viability, normalised (%): 61.4 (active)

NPM2, technical replicate 3
- viability, normalised (%): 61.7 (active)

CAMKK1, technical replicate 1
- viability, normalised (%): 63.1 (active)

CAMKK1, technical replicate 2
- viability, normalised (%): 46.9 (active)

CAMKK1, technical replicate 3
- viability, normalised (%): 41.9 (active)

PLCB1, technical replicate 1
- viability, normalised (%): 45.9 (active)

PLCB1, technical replicate 2
- viability, normalised (%): 59.5 (active)

PLCB1, technical replicate 3
- viability, normalised (%): 52.4 (active)

Single entries from the entries so far.
Under “viability, normalised (%)”, LIG3, technical replicate 2 has 57.9 (active)
Result of COPRS, technical replicate 2 under “viability, normalised (%)”: 74.7 (active)
